Experimental data from publication doi:10.1101/089763.
Results are given in words; binding and its absence hold for the method and conditions named. In cells and extracts the contact can be indirect. A yes stands for co-enrichment or nearness to the bait. Other partners may have been found.

Target: T1, HRDE-1 (C. elegans (endogenous in whole animals)) (UniProt Q09249)
T1 sequence: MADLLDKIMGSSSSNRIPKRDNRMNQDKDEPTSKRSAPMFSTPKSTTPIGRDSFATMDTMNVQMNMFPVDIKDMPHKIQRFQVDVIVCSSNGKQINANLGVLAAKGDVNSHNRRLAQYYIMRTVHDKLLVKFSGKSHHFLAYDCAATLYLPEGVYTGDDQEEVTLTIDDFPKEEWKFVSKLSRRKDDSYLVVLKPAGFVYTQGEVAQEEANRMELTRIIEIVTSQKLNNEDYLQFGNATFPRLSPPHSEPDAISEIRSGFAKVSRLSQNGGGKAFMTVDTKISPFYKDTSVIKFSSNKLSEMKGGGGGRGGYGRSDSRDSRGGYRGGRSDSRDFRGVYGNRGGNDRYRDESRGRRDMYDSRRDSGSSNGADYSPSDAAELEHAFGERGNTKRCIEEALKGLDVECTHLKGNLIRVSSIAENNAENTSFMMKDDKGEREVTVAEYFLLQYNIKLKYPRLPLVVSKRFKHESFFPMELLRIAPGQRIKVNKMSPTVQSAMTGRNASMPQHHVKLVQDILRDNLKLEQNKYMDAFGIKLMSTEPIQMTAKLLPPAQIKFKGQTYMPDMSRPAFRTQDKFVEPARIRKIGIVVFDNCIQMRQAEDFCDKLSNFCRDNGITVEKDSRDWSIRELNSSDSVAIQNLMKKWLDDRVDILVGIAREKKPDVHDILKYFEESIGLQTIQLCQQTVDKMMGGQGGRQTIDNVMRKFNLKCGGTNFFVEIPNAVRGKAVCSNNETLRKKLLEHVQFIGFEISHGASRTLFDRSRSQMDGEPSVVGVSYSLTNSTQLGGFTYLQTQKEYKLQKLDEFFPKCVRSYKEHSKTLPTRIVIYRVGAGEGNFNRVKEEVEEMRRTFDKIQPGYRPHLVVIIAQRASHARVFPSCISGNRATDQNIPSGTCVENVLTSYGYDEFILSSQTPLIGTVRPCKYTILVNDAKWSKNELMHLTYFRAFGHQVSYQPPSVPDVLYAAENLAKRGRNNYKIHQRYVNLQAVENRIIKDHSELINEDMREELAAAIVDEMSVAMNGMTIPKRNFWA
Assay: affinity purification with mass spectrometry

binding	Substance
binds	ALY (exon-junction complex protein detected in HRDE-1 IPs) (C. elegans (endogenous in whole animals))
binds	eIF4A3 (exon-junction complex protein detected in HRDE-1 IPs) (C. elegans (endogenous in whole animals))
binds	Aquarius/EMB-4 (C. elegans (endogenous in whole animals))
